The results in this text go back to US5258492A (The Administrators of the Tulane Educational Fund, priority 1991, dated 1993).

Square brackets hold non-standard residues; d marks the D form. Ends that are not written are not given here. pGlu = O=C1CC[C@@H](C(=O)O)N1

The data set in a line: general procedure: Boc solid-phase peptide synthesis; benzhydrylamine HCl resin, about 1 meq NH2/g (Advanced ChemTech); DIC. As to conditions: whole synthesis, analytical HPLC (HP-1090, W-Porex C18), TFA or HCl salt.

As for [pGlu]HWSY, the “final HPLC purity” value is recorded as >95%.
